Assay results from PubChem BioAssay AID540276 (National Center for Advancing Translational Sciences (NCATS), 2011).
Hit rate of the full screen: of about 300,000 compounds, about 5,400 (1.8%) were called active. The inconclusive results got no clear call from the source; some entries with a clear call stand among them for comparison. Calls follow the shape of the full dose curve; tested in HEK293 cells. Where the call is inconclusive, the potency comes from a doubtful curve fit.

Assay: qHTS for inhibitors of binding or entry into cells for Marburg Virus
Conditions: Marburg virus pseudotyped entry inhibition, cell reporter; series mostly up to 37.8 µM
Potency is read from the fitted curve at half-maximal effect.

| Compound | Potency |
| --- | --- |
| O=C(CSc1nncn1-c1ccccc1)NCc1cccs1 | inconclusive: 2.82 µM [activator, single point] |
| Cc1n[nH]c(=O)c2c(NC(=O)COC(=O)Cc3c(F)cccc3Cl)oc(C)c12 | inconclusive: 0.316 µM [activator, full curve, poor fit] |
| O=C1OC(c2ccc(Br)cc2)=N/C1=C\c1ccco1 | inactive |
| Cc1c2c(n3c(nc4ccccc43)c1C#N)N(c1ccccc1)CC2 | inactive |
| COCNc1nc(OCC#N)nc(N(C)C)n1 | inconclusive: 0.082 µM [activator, full curve, poor fit] |
| Cc1ccc(OCCn2cc(C#N)c3ccccc32)cc1 | inconclusive: 15.8 µM [inhibitor, partial curve, poor fit] |
| Cc1cccc(OCCCC(=O)O)c1 | inconclusive: 1.58 µM [activator, partial curve, poor fit] |
| Clc1cccc(Nc2nc(-c3ccncc3)cs2)c1 | inconclusive: 11.2 µM [inhibitor, partial curve, poor fit] |
| COc1ccc(-c2cnc3ccccc3n2)cc1NC(=O)CNC(=O)c1ccccc1 | inactive |
| Cc1[nH]n(-c2ncc(-c3ccc(Cl)cc3)s2)c(=O)c1C(c1ccc(Cl)cc1)C(C#N)C#N (stereo not given) | inconclusive: 31.6 µM [inhibitor, single point] |
| O=C(COc1ccccc1)N1CCc2ccccc21 | inactive |
| O=C(CC1CCCCC1)N1CCC(c2nc(-c3ccc(S(=O)(=O)N4CCCC4)cc3)no2)CC1 | inconclusive: 18.3 µM [inhibitor, single point] |
| CCN(CC)S(=O)(=O)c1cccc(NC(=O)CSc2nc3ccccc3[nH]2)c1 | inconclusive: 35.5 µM [inhibitor, single point] |
| O=C(CCS(=O)(=O)c1nc(-c2cccs2)cc(C(F)(F)F)n1)Nc1cc(Br)ccc1O | inconclusive: 35.5 µM [inhibitor, single point] |
| COc1ccc(C(=O)c2c(C)c3ccccc3n2CC(O)CNC(C)C)cc1 (stereo not given) | inconclusive: 10.3 µM [inhibitor, partial curve, poor fit] |
| COc1nccc(C(F)(F)F)c1C(=O)NC(=O)Nc1c(C)cccc1C | inactive |
| CCc1cccc(NS(=O)(=O)c2ccc3c(c2)CCC(=O)N3)c1 | inconclusive: 1.12 µM [inhibitor, full curve, poor fit] |
| c1ccc(-c2ccc(C3=Nn4c(nnc4-c4cc(-c5ccccc5)n[nH]4)SC3)cc2)cc1 | inconclusive: 4.11 µM [inhibitor, partial curve, poor fit] |
| O=C(Nc1ccc(N2CCOCC2)cc1)c1cn2ccccc2n1 | inconclusive: 5.01 µM [inhibitor, full curve, poor fit] |
| COC(=O)c1sccc1NC(=O)Nc1cccc(F)c1 | inactive |
| COc1ccc(-c2nnnn2-c2ccccc2OC)cc1 | inconclusive: 7.3 µM [inhibitor, partial curve, poor fit] |
| CC(=O)N1c2ccc(C)cc2Sc2c1ccc1ccccc21 | inconclusive: 15.8 µM [inhibitor, partial curve, poor fit] |
| O=S(=O)(c1ccc(Cl)cc1Cl)N1CCCC1c1cccnc1 (stereo not given) | inactive |
| Cc1c(C)c(C)c(CO/N=C/c2cccs2)c(C)c1C | inconclusive: 35.5 µM [inhibitor, single point] |

| Compound | Potency |
| --- | --- |
| CS(=O)(=O)c1ccccc1C(=O)N(CCC1=CCCCC1)c1c(N)n(Cc2ccccc2)c(=O)[nH]c1=O | inconclusive: 3.55 µM [activator, single point] |
| COc1cc(/C=C/c2nc3ccccc3c(=O)n2-c2cccc(O)c2)ccc1O | inconclusive: 15.8 µM [inhibitor, single point] |
| Cc1ccc(S(=O)(=O)N2CCC(C(=O)N/N=C/c3ccccc3[N+](=O)[O-])CC2)cc1 | inconclusive: 35.5 µM [inhibitor, single point] |
| Cc1ccccc1C(=O)N/N=C1/SCC(=O)N1Cc1ccc2c(c1)OCO2 | inconclusive: 35.5 µM [inhibitor, single point] |
| COC(=O)c1ccc(OCC(=O)c2ccc(C)c(C)c2)cc1 | inconclusive: 6.31 µM [inhibitor, full curve, poor fit] |
| O=C(c1ccc(Cl)cc1)C(CN1CCCCC1)c1ccccc1 (stereo not given) | inconclusive: 5.62 µM [inhibitor, full curve, poor fit] |
| Cc1cccc2sc(NC(=O)CSc3nc4ccccc4o3)nc12 | inconclusive: 29.1 µM [inhibitor, single point] |
| Cc1ccc(OCCOc2ccc(Br)cc2)c([N+](=O)[O-])n1 | inactive |
| CCCCCc1nnc(NC(=O)OCCC)s1 | inactive |
| Cn1cc([N+](=O)[O-])c(C(=O)N/N=C/c2ccc3c(c2)OCO3)n1 | inactive |
| Cc1cc(NC(=O)c2cc(-c3ccncc3)nc3ccccc23)ccc1Br | inconclusive: 17.8 µM [inhibitor, single point] |
| Cc1ccccc1C(=O)Nc1sc2c(c1C(=O)N1CCCCC1)CCC(C)C2 (stereo not given) | inconclusive: 7.94 µM [inhibitor, partial curve, poor fit] |
| Cc1cccc(NC(=O)c2ccccn2)c1C | inconclusive: 18.3 µM [activator, partial curve, poor fit] |
| O=C(Nc1nccs1)c1ccc(-c2ccc(Cl)cc2Cl)o1 | inactive |
| CNc1cc(N2CCCC2)ccc1[N+](=O)[O-] | inactive |
| Cc1ccc(-c2nc(=S)c3c(n2Cc2ccco2)CCCC3)cc1 | inactive |
| CCOc1ncccc1C(=O)Nc1cc(S(=O)(=O)N2CCOCC2)ccc1OCC(F)(F)F | inconclusive: 17.8 µM [activator, single point] |
| O=c1[nH]c(=S)[nH]cc1Oc1ccccc1 | inactive |
| CCOC(=O)c1cc(C#N)c(SCC(=O)O)[nH]c1=O | inconclusive: 39.8 µM [activator, partial curve, poor fit] |
| CCc1ccccc1OCC(=O)Nc1ccc(F)c(S(=O)(=O)N2CCOCC2)c1 | inactive |
| COc1ccc(NC(=O)c2ccc3ncsc3c2)c2ccccc12 | inactive |
| Cc1ccc(C)c(OCC(O)CN2CCC(C)CC2)c1C (stereo not given) | inconclusive: 3.16 µM [inhibitor, partial curve, poor fit] |
| CN1CCN(c2nc(-c3cccc([N+](=O)[O-])c3)nc3ccccc23)CC1 | inconclusive: 22.4 µM [inhibitor, single point] |
| COC(=O)c1ccc(-c2ccc(Cl)cc2)nc1C | inconclusive: 0.794 µM [activator, full curve, poor fit] |

| Compound | Potency |
| --- | --- |
| O=C(CCc1ccc(S(=O)(=O)N2CCOCC2)cc1)NCCCN1CCCC1=O | inconclusive: 29.1 µM [activator, single point] |
| Cc1cccc(N2CCN(C(=O)c3ccc(CS(=O)(=O)c4ccccc4C)o3)CC2C)c1 (stereo not given) | inactive |
| CCOC(=O)/C(C#N)=C1\CCCN1CC(N)=S | inconclusive: 6.31 µM [inhibitor, single point] |
| CCc1nnc(NC(=O)CSc2nnc(-c3ccccc3O)o2)s1 | inconclusive: 17.8 µM [inhibitor, single point] |
| CCn1cc(CN2CCc3c([nH]c4ccccc34)C2c2cccc(OC)c2)c(C)n1 (stereo not given) | inconclusive: 17.8 µM [inhibitor, single point] |
| O=C(NCc1cccnc1)C(Cl)(Cl)Cl | inconclusive: 0.112 µM [activator, full curve, poor fit] |
| Cc1ccc(S(=O)(=O)N2CCOCC2)cc1C(=O)N1CCOCC1 | inconclusive: 0.411 µM [activator, partial curve] |
| CC1CN(C(=O)CSc2nnc(-c3ccncc3)n2-c2ccccc2)CC(C)O1 (stereo not given) | inactive |
| C[C@@H](C(=O)Nc1ccc2ccccc2c1)[C@H]1C[C@]1(C)[C@H](NC(=O)c1cnccn1)c1ccccc1 | inactive |
| COc1ccc([N+](=O)[O-])c(OC)c1C(=O)NC(=O)Nc1nc(C)cc(C)n1 | inactive |
| CCOC(=O)/C(C#N)=C/c1ccc(-c2ccsc2C(=O)OC)o1 | inactive |
| CCN1CCC(N2CCN(c3ccc(F)cc3)CC2)CC1 | inconclusive: 12.6 µM [activator, single point] |
| O=C(NCCCN1CCOCC1)c1cc2c(s1)CCCC2 | inconclusive: 31.6 µM [activator, single point] |
| COc1cc(S(=O)(=O)NCc2ccncc2)c(OC)cc1Br | inconclusive: 2.24 µM [inhibitor, full curve] |
| Cc1cccc(NC(=O)c2cc3n(n2)C(C(F)(F)F)CC(c2ccc4c(c2)OCO4)N3)c1 (stereo not given) | inconclusive: 14.6 µM [inhibitor, partial curve, poor fit] |
| COc1cccc(C(=O)/C=C2\NCCc3cc(OC)c(OC)cc32)c1 | inconclusive: 25.1 µM [inhibitor, single point] |
| Cc1ccc(C(=O)Oc2coc(CSc3nnc(NC(=O)C4CC4)s3)cc2=O)cc1C | inconclusive: 0.891 µM [activator, full curve, poor fit] |
| COc1ccccc1CNC(=O)CN(C)c1nn2c(=O)cc(C)nc2s1 | inactive |
| COc1ccc2cc(CN(Cc3ccco3)Cc3nnnn3C3CCCCC3)c(=O)[nH]c2c1 | inconclusive: 9.2 µM [inhibitor, partial curve, poor fit] |
| COC(=O)c1ccccc1NC(=O)CSc1ccc(C)cc1 | inactive |
| CCc1nnc2cccc(Cl)n12 | inactive |
| Cc1ccc([N+](=O)[O-])cc1S(=O)(=O)N1CCC(C)CC1 | inconclusive: 3.98 µM [inhibitor, single point] |
